Some entries share one result that the patent states for a list of compounds.
Legend:
GRP receptor [1] = target: T1, GRP receptor (Mus musculus, UniProt P21729); assay: ^125I-GRP ligand binding assay, intact Swiss 3T3 fibroblast membranes; details: for reduction of GRP binding to membranes: in the presence of Mg^+2; for ligand affinity of the receptor in the presence of the nucleotide: intact Swiss 3T3 fibroblast membranes
T1 construct: endogenous in cells; host or cells: mouse Swiss 3T3 fibroblasts (membranes; intact or solubilized with CHAPS/CHS)
Experimental: (§1) For assays of detergent solubilized membrane extracts, the final CHAPS detergent concentration was adjusted to between 0.050% and 0.20%. The concentration of CHS was maintained at 1/5 to 1/10 the concentration of CHAPS. Samples were also prepared omitting the BSA. After incubation at 15°C for 30 minutes, samples were cooled to 0°C. […] The filters were counted in an Isodata 500 gamma counter.
One particular experiment is discussed below, where the binding parameters of the solubilized and the membrane bound form of the receptor are determined under similar conditions.

Amino acid sequences for entries named in this document (tags omitted). A change or cut given only in a name is not applied to a line headed by its entry.
UniProt P21729: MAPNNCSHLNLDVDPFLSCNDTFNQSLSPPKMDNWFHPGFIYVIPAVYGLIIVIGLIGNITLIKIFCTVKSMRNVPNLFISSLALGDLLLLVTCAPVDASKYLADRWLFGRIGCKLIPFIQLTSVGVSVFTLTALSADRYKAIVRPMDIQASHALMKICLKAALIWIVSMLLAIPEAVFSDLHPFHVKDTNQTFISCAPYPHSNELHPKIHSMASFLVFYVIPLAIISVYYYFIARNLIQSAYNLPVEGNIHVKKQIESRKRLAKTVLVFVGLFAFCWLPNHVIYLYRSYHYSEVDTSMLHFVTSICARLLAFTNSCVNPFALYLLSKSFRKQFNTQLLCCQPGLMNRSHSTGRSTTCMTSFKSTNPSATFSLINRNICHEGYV

GRP receptor [2] = target: T1, GRP receptor; assay: ^125I-GRP ligand binding assay, detergent solubilized Swiss 3T3 fibroblast membranes; details: in the presence of Mg^+2
Experimental: Swiss 3T3 fibroblast membranes, prepared in Example 1, were suspended at 15 mg protein/ml in 50 mM HEPES, pH 7.5, 1.0 mM EGTA, 100 mM NaCl, 0.25 M sucrose, 50 µg/ml leupeptin, 5 µg/ml pepstatin, 10 µg/ml aprotinin, 30 µg/ml bacitracin, and 0.5 mM phenylmethylsulfonyl fluoride. A mixture of 3-[(3cholamidopropyl) dimethylammonio]-1- propane sulfonate (CHAPS) and cholesteryl hemisuccinate (CHS) in a ratio of 10:1 was added slowly to yield a final concentration of 0.75% CHAPS. The extract was incubated at 21°C for 30 minutes, cooled to 4°C and the insoluble material was removed by centrifugation at 100,000 x gravity for 60 minutes.
as §1
Scatchard analysis of ^125I-GRP binding to intact and solubilized Swiss 3T3 membranes was done. One particular experiment is discussed below, where the binding parameters of the solubilized and the membrane bound form of the receptor are determined under similar conditions.

Nc1nc2c(ncn2[C@@H]2O[C@H](COP(=O)(O)OP(=O)(O)NP(=O)(O)O)[C@@H](O)[C@H]2O)c(=O)[nH]1 [GMPPNP]
reduction of GRP binding to membranes (GRP receptor [1]): about 80%
ligand affinity of the receptor in the presence of the nucleotide (GRP receptor [1]): reduced about ten fold
change in ligand binding properties of receptor extracted by CHAPS (GRP receptor [2]): no change

Nc1nc2c(ncn2[C@@H]2O[C@H](COP(=O)(O)OP(=O)(O)OP(=O)(O)O)[C@@H](O)[C@H]2O)c(=O)[nH]1 [GTP]
reduction of GRP binding to membranes (GRP receptor [1]): about 80%
ligand affinity of the receptor in the presence of the nucleotide (GRP receptor [1]): reduced about ten fold
change in ligand binding properties of receptor extracted by CHAPS (GRP receptor [2]): no change
